Laboratory results published in PMC10665399.
Results are given in words; binding and its absence hold for the method and conditions named. In cells and extracts the contact can be indirect. Some results given as binding are weak or reduced against the parent protein; the word gives no strength. Each block holds one molecule with its values, some of them ahead of it.

Amino acid sequences for entries named in this document (tags omitted).
UniProt Q9H7E9: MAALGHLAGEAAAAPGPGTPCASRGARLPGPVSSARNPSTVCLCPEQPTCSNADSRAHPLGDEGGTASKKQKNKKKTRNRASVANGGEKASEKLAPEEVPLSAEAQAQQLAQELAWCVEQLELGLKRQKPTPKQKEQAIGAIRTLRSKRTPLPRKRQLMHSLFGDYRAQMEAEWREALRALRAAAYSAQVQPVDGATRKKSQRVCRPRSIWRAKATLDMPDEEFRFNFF
UniProt Q92879: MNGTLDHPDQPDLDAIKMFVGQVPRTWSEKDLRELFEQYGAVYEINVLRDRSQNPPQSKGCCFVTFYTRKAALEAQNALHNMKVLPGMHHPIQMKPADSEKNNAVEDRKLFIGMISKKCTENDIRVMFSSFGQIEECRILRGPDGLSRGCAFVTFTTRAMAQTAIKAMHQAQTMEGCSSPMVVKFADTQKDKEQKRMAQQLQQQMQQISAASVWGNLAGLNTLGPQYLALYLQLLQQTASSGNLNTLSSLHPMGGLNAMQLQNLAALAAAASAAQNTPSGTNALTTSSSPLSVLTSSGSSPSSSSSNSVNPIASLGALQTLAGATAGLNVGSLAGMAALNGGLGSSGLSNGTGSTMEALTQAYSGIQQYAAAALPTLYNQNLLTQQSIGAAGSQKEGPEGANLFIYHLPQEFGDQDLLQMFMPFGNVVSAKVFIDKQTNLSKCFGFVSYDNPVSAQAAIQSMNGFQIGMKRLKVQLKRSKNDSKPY

How the values were obtained:
[1] = biological target: T1, RNA binding motif protein 42 (RBM42), endogenous (human) (UniProt Q9BTD8); assay: co-IP; immunoprecipitation of RBM42 with selected proximal proteins; set-up in Supplementary Fig. 6d, not shown
T1 sequence: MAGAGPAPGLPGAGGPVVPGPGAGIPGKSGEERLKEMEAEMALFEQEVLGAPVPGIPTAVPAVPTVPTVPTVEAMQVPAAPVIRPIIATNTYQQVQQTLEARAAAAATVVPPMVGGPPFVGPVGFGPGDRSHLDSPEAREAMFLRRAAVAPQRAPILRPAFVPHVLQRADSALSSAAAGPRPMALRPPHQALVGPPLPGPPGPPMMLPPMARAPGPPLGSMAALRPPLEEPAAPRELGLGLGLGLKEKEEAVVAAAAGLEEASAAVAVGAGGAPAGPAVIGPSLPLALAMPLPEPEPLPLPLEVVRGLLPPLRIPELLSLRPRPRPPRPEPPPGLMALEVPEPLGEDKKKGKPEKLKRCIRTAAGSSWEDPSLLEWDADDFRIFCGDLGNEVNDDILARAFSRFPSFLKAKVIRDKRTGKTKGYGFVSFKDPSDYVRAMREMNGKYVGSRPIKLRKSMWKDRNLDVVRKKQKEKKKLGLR

[2] = biological target: T1, RNA binding motif protein 42 (RBM42), endogenous (human); assay: co-IP; endogenous RBM42 precipitated with RBM42 antibody (beads-only as control) from whole-cell lysates of HCT116 cells treated with 10 μM VP16 for 18 h or left untreated; immunoblot

Molecule: C8orff33 (from UniProt Q9H7E9 1-229)
- binding [1]: binds

Molecule: CUG binding protein 1 (CUGBP1) (from UniProt Q92879 1-486)
- binding [2]: binds

Further lines, results first:

- binding [1]: binds
Molecule: hnRNP K (from UniProt P61978 1-463)

- binding [1]: binds
B1: LSM4 (protein, UniProt Q9Y4Z0 1-139)
chain: MLPLSLLKTAQNHPMLVELKNGETYNGHLVSCDNWMNINLREVICTSRDGDKFWRMPECYIRGSTIKYLRIPDEIIDMVKEEVVAKGRGRGGLQQQKQQKGRGMGGAGRGVFGGRGRGGIPGTGRGQPEKKPGRQAGKQ
